39 molecules from PubChem BioAssay AID2685 (National Center for Advancing Translational Sciences (NCATS), 2010) can be followed below.

Values joined by “and” are separate entries in the source; they are usually repeats but may differ in a detail not shown here. Identical values can stand only once. This is one part of the list. Shown are side measurements of this screen, not its main read-out; they come without a call. The list favours compounds with an active or inconclusive main result. Words in brackets tell the shape of the fitted curve; partial curves, single points and poor fits give uncertain potencies.

The assay in a line: qHTS Assay for Lipid Storage Modulators in Drosophila S3 Cells.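 On cell number change: cells counted by Cell Tracker Red CMTPX staining in the red channel.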 The following applies: BODIPY lipid droplet fluorescence, 18-24 h; for cell number change: measured here: cell count max response, cells fed with added oleic acid. The essentials:
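Laser-scanning cytometry quantifies lipid droplet accumulation (500–530 nm total intensity; droplet/cell object ratio) in oleic acid-fed (400 uM added) Drosophila S3 cells treated with a concentration series. 20 uM Triacsin C defined 100% inhibition.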
(Quantitative high-throughput screening tests each substance at several concentrations.)

The mark [1] stands for this setting: measured here: cell number channel AC50, cells fed with added oleic acid.
Setting [2] is: measured here: lipid fluorescence (Fed channel) AC50, cells fed with added oleic acid.

On to `Cc1ccc(SCCC(=O)NCc2ccco2)cc1`, for which the cell number change is -23.1%.
Consider `COc1c(N2CCN(C(=S)Nc3ccccc3)C(C)C2)c(F)cc2c(=O)c(C(=O)O)cn(C3CC3)c12` (stereo not drawn), for which the cell number change was found to be 28.9%. Besides, under setting [1], the concentration at half-maximal activity (AC50) (in general, the concentration giving half of the maximal activity seen) is 3.66 µM [rising, full curve, poor fit].
Turning to `O=C(Cc1ccc(Cl)cc1)Nc1ncc([N+](=O)[O-])s1`, the cell number change was -10%. Further, under setting [2], the AC50 was 6.51 µM [falling, single point].
On to `OC(COCc1cccs1)CN1CCN(c2ccccn2)CC1` (stereo not drawn), for which the cell number change turned out to be 16.6%. Further, the AC50 under setting [2] is 3.66 µM [falling, single point].
On to `C/C(=N\OCC(=O)Nn1c(=O)[nH]c2ccccc2c1=O)c1ccccc1`, for which the cell number change was 14.1%.
As for `CC(=O)NCCC(=O)Nc1cc(S(=O)(=O)N2CCOCC2)ccc1N1CCOCC1`, the cell number change is -1.97%. Moreover, under setting [2], the concentration at half-maximal activity (AC50) was 1.46 µM [falling, partial curve, poor fit].
`Cc1sc2nc(CSC(C)C(=O)Nc3ccc(C(N)=O)cc3)[nH]c(=O)c2c1C` (stereo not drawn): the cell number change was -50.4%. The AC50 under setting [1] is 25.9 µM [falling, single point]. In addition, the AC50 under setting [2] was 16.4 µM [falling, partial curve].
Regarding `CCOC(=O)C1CCN(C(=O)c2ccc3c(c2)NC(=O)/C(=C/c2ccccc2)S3)CC1`, the cell number change is 0.236%. For the same molecule, the AC50 under setting [2] is 29.1 µM [falling, single point].
On to `O=C(CNC(=O)c1ccccc1C(=O)O)c1ccccc1`, for which the cell number change was 3.04%. Moreover, under setting [2], the AC50 is 6.51 µM [rising, single point].
Take `CC(=O)Nc1ccc(S(=O)(=O)NCc2ccc3[nH]c(C)cc3c2)cc1`: under setting [2], the AC50 was 0.58 µM [rising, partial curve].
`COc1ccc(NC(=O)c2ccccc2N(Cc2ccccc2)S(C)(=O)=O)cc1`: the cell number change is -11.2%. Besides, the concentration at half-maximal activity (AC50) under setting [2] is 16.4 µM [falling, partial curve].
For `Nc1nc(-c2ccc(Cl)cc2)nn1C(=O)c1ccco1`, the cell number change is 88.1%. Further, the AC50 under setting [2] is 0.461 µM [rising, partial curve, poor fit].
For `CCNC(=O)c1ccc(CSc2nc3ccccc3s2)cc1`, the cell number change worked out at 15.7%. Besides, the concentration at half-maximal activity (AC50) under setting [2] was 0.58 µM [falling, single point].
In the case of `Cc1ccccc1OCC(O)Cn1c(=N)n(Cc2ccccc2)c2ccccc21` (stereo not drawn), the cell number change is -70.2%. Moreover, the AC50 under setting [1] was 29.1 µM [falling, single point]. The AC50 under setting [2] was 13 µM [falling, partial curve, poor fit].
Take `CCCNC(=O)COc1cccc(C(=O)NCc2ccccc2)c1`: the cell number change stood at 4.86%. In addition, the concentration at half-maximal activity (AC50) under setting [2] is 29.1 µM [rising, single point].
Turning to `C[C@]12C(=O)N(c3cccc(F)c3)C(=O)N1[C@@H]1c3ccccc3OC[C@@H]1[C@H]2c1ccccc1`, the cell number change came to 16.2%.
Regarding `NC(=O)CSc1nc2ccccc2nc1SCC(N)=O`, the cell number change was 34.7%. Besides, the concentration at half-maximal activity (AC50) under setting [1] is 32.6 µM [rising, single point]. Besides, the AC50 under setting [2] was 29.1 µM [rising, single point].
Consider `C/C(N)=C(/C#N)C(=O)COC(=O)C1CSC2(c3ccc(F)cc3)CCC(=O)N12` (stereo not drawn), for which the cell number change was -13.9%. Under setting [2], the AC50 was 6.51 µM [rising, single point].
For `Cc1ccc(Sc2ncccc2C(=O)O)cc1`, under setting [2], the AC50 was 11.6 µM [rising, single point].
Regarding `O=C(NCCc1csc(-c2ccccc2)n1)c1ccccc1F`, the cell number change was -31.6%. Also, the AC50 under setting [1] is 0.184 µM [falling, full curve, poor fit].
For `CC(=O)Nc1cccc(NC(=O)CSc2ncc(-c3ccc(Cl)cc3)n2Cc2ccco2)c1`, the cell number change is -40%. Besides, the AC50 under setting [1] is 14.6 µM [falling, partial curve, poor fit].
Regarding `Cc1ccc(-n2nc(C)c3c(=O)[nH]c(C(F)(F)F)nc32)cc1`, the cell number change turned out to be 51%. The AC50 under setting [1] was 0.0291 µM [rising, full curve, poor fit].
Take `Cc1cc(=O)n2nc(N3CCCC(C(=O)NC4CCC(C)CC4)C3)sc2n1` (stereo not drawn): the cell number change came to 19.3%.
As for `O=C(c1cccc(-c2nnc(-c3ccccc3)o2)c1)N1CCCCC1`, the cell number change stood at 109%. Moreover, under setting [2], the half-maximal activity concentration (AC50) was 0.103 µM [rising, full curve, poor fit].
`CCn1nnc(NC(=O)c2cc3ccccc3o2)n1`: the cell number change is 8.25%.
For `COC(=O)C1=C(C)NC(C)=C(C(=O)OC)C1c1ccc(-c2cccc([N+](=O)[O-])c2)o1`, the cell number change was determined as 32.4%. For the same molecule, the half-maximal activity concentration (AC50) under setting [1] was 29.1 µM [rising, single point].
Turning to `Oc1ccc2ccc3[nH]cnc3c2c1`, the cell number change was found to be 8.53%. Moreover, the concentration at half-maximal activity (AC50) under setting [2] was 4.11 µM [rising, full curve, poor fit].
Regarding `O=C(COC(=O)/C=C/c1ccc(S(=O)(=O)N2CCOCC2)cc1)NCc1ccc2c(c1)OCO2`, the cell number change turned out to be 29.5%.
With `CCOC(=O)C(Cc1c[nH]c2ccccc12)NC(=O)c1ccco1` (stereo not drawn), the cell number change turned out to be 96%. Moreover, the AC50 under setting [1] was 29.1 µM [rising, single point].
`COc1ccc(OC(=O)c2cnc3n(c2=O)CCS3)cc1`: the cell number change was -34.5%. In addition, the AC50 under setting [2] is 29.1 µM [falling, single point].
In the case of `CC(C)(C)c1ccc(OCCNCc2ccccc2)cc1`, the cell number change is -29.3%. In addition, the AC50 under setting [2] was 29.1 µM [falling, single point].
Turning to `Cc1cccc(N(C)S(=O)(=O)c2ccc(-c3cc(C)no3)s2)c1`, the cell number change is -10.1%. Further, the AC50 under setting [2] is 0.259 µM [falling, full curve, poor fit].
Regarding `OCCOCCN1CCN(C2=Nc3ccccc3Sc3ccccc32)CC1`, the cell number change was -6% and -9.51%. In addition, the AC50 under setting [2] is 1.3 µM [falling, full curve] and 3.66 µM [rising, single point].
Turning to `COc1cc(OC)cc(C(=O)NCC(=O)N2CCC(C)CC2)c1`, the cell number change was determined as 36.9%. Also, the AC50 under setting [1] is 4.61 µM [rising, full curve].
As to `CC/C(=C1/C(=O)CC(C)(C)C(C(=O)OC)C1=O)N1CCCC1` (stereo not drawn), the cell number change is 2.64%. Further, the AC50 under setting [2] is 0.0517 µM [falling, full curve, poor fit].
Regarding `O=C(CCc1ccccc1)NCc1ccncc1`, the cell number change was 11.9%. Under setting [2], the AC50 was 29.1 µM [rising, single point].
`CS(=O)(=O)N1CCN(c2ccccc2NC(=O)c2ccc(-c3ccc(Cl)cc3Cl)o2)CC1`: the AC50 under setting [1] was 0.92 µM [rising, full curve] and the AC50 under setting [2] was 0.731 µM [rising, full curve].
As to `O=C(Cc1csc(N2CCOCC2)n1)N/N=C/c1cccc(O)c1`, the cell number change is -1.86%.
Take `Cc1ccc(S(=O)(=O)N2CCOCC2)cc1NC(=O)CN1CCC(Cc2ccccc2)CC1`: the cell number change was -1.59%. For the same molecule, the AC50 under setting [1] is 6.51 µM [rising, single point]. Moreover, the AC50 under setting [2] was 0.651 µM [falling, full curve, poor fit].
